Our source for the cell number change and AC50 values is PubChem BioAssay AID2685 (National Center for Advancing Translational Sciences (NCATS), 2010).

The nature of this test: qHTS Assay for Lipid Storage Modulators in Drosophila S3 Cells.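 On cell number change: cells counted by Cell Tracker Red CMTPX staining in the red channel.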 As to conditions: BODIPY lipid droplet fluorescence, 18-24 h; for cell number change: measured here: cell count max response, cells fed with added oleic acid. The gist of the method:
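Laser-scanning cytometry quantifies lipid droplet accumulation (500–530 nm total intensity; droplet/cell object ratio) in oleic acid-fed (400 uM added) Drosophila S3 cells treated with a concentration series. 20 uM Triacsin C defined 100% inhibition.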
A general note: Quantitative high-throughput screening tests each substance at several concentrations.

The mark [1] stands for this setting: measured here: lipid fluorescence (Fed channel) AC50, cells fed with added oleic acid.
Setting [2] is: measured here: cell number channel AC50, cells fed with added oleic acid.

The structures appear in SMILES notation. The list shows a part of the results. Shown are side measurements of this screen, not its main read-out; they come without a call. Most of these compounds were active or inconclusive in the main read-out, so they are no random draw. Potencies come from curve fits of mixed quality, noted in brackets.

As for `CCN(C(=O)CCS(=O)(=O)c1cccc2nonc12)c1ccc(F)cc1`, the cell number change was found to be 18.3%. In addition, the half-maximal activity concentration (AC50) (in general, the midpoint of the concentration-response curve, whichever way the signal moves) under setting [1] was 6.51 µM [falling, partial curve].
In the case of `COc1ccccc1N1CCN(C(=O)c2ccc(CN3CCOCC3)cc2)CC1`, the cell number change stood at 47.8%.
For the compound `C/C=C/c1ccccc1OCc1ccc(C(=O)O)o1`, the cell number change is -16.1%. Also, the AC50 under setting [2] was 1.16 µM [falling, full curve].
On to `Cn1c(-c2cc(Cl)ccc2O)nc2c1c(=O)[nH]c(=O)n2Cc1ccccc1`, for which the cell number change is 25.4%. In addition, the AC50 under setting [1] is 29.1 µM [rising, single point].
Turning to `Cc1cc(C)cc(CSc2ccc(S(=O)(=O)N3CCCC3)cn2)c1`, the cell number change was -7.51%. Moreover, the AC50 under setting [1] is 4.61 µM [rising, partial curve, poor fit].
Turning to `Cn1ccnc1Sc1ccc(C=O)cc1[N+](=O)[O-]`, the cell number change was -17.2%. Further, the AC50 under setting [2] was 0.116 µM [falling, full curve, poor fit].
For the compound `O=C(CN1CCN(c2ccccc2F)CC1)c1ccc2cc[nH]c2c1`, the cell number change was -0.506%. In addition, the AC50 under setting [1] was 3.26 µM [rising, single point].
As for `COc1ccc(/C=N/NC(=O)c2ccccc2Cl)cc1CSc1nc2ccccc2s1`, the cell number change amounted to 110%. The AC50 under setting [2] is 0.651 µM [rising, full curve, poor fit]. The AC50 under setting [1] was 0.92 µM [rising, full curve].
On to `COc1cccc(CNS(=O)(=O)c2ccc3c(c2)CC(C)N3C(=O)C2CCC2)c1` (stereo unspecified), for which the cell number change was -9.92%. Under setting [1], the AC50 was 4.11 µM [falling, single point].
As for `CCCN(CCC)CCNC(=O)C(NS(=O)(=O)c1ccc2c(c1)CCC(=O)N2)c1ccccc1` (stereo unspecified), the cell number change is -29.5%.
For `COc1cc(/C=C/C(=O)OCC(=O)N2CCCc3ccccc32)ccc1OC(F)F`, the cell number change is -6.08%. The AC50 under setting [1] was 3.66 µM [falling, full curve, poor fit].
As to `COc1ccc(CNC(=O)CCc2ccc(S(=O)(=O)N3CCCCCC3)cc2)cc1`, the cell number change was -47.1%. Moreover, the AC50 under setting [2] was 16.4 µM [falling, single point]. The AC50 under setting [1] is 20.6 µM [falling, single point].
Consider `O=C(OCC#CCSc1nnc(-c2cccc3ccccc23)o1)c1ccc(F)cc1`, for which the cell number change came out at 49.4%. For the same compound, under setting [2], the AC50 is 0.231 µM [rising, full curve, poor fit]. Under setting [1], the AC50 is 0.366 µM [rising, full curve].
For `O=c1cc(-c2ccc(Br)cc2)[nH][nH]1`, the half-maximal activity concentration (AC50) under setting [2] was 0.13 µM [falling, full curve, poor fit].
As to `COC(=O)[C@@]12CCCCN1[C@H](c1ccc(-c3cc(C(C)=O)cs3)c(OC)c1)[C@H]1C(=O)N(C)C(=O)[C@H]12`, the cell number change stood at 19.6%. In addition, the AC50 under setting [2] was 0.231 µM [falling, full curve, poor fit].
Turning to `O=C(Cn1ccc2cc(S(=O)(=O)N3CCCC3)ccc21)NCc1ccccc1`, the cell number change was -5.73%. The AC50 under setting [1] was 0.0366 µM [rising, full curve, poor fit].
Consider `Cc1ccc(OS(=O)(=O)c2c(C)nn(C)c2Cl)c(C)c1`, for which the AC50 under setting [1] is 0.82 µM [rising, single point].
For `Cc1ccc(C(=O)NC2CC(C)(C)NC(C)(C)C2)cc1`, the cell number change is 17.9%. Under setting [1], the AC50 is 29.1 µM [rising, single point].
Take `Cc1ccc(NC2CCCN(C(=O)c3cnsn3)C2)cc1C` (stereo unspecified): the cell number change came to 66.2%. The AC50 under setting [2] is 18.4 µM [rising, partial curve].
As for `COc1ccc(C(C)(C)C)cc1NC(=O)CCN1C(=O)C2CCCCC2C1=O` (stereo unspecified), the cell number change was -43.7%. Further, the concentration at half-maximal activity (AC50) under setting [2] was 20.6 µM [falling, partial curve, poor fit]. The AC50 under setting [1] is 1.03 µM [falling, full curve].
Regarding `CCN(CC)Cc1c(C(=O)N/N=C/c2cccc(OCc3ccc(F)cc3)c2)nnn1-c1nonc1N`, the cell number change worked out at 23.7%. In addition, the AC50 under setting [1] is 29.1 µM [falling, single point].
With `COC(=O)c1ccc(NC(=O)COc2ccc3c(c2)OCO3)cc1`, the cell number change is 6.58%.
In the case of `O=C(O)Cn1c(=O)c2c3c(sc2n(Cc2ccccc2F)c1=O)CCCC3`, the cell number change came to 10.1%. For the same compound, the AC50 under setting [1] was 3.26 µM [rising, partial curve, poor fit].
Take `O=C(NCC1CCCO1)C(c1cccs1)N(C(=O)Cn1nnc(-c2cccs2)n1)C1CCCC1` (stereo unspecified): the cell number change is -16.6%. Under setting [1], the concentration at half-maximal activity (AC50) is 25.9 µM [falling, partial curve].
As for `O=C(NC(=S)Nc1ccccn1)c1cc(-c2ccccc2)nc2ccccc12`, the cell number change was 13%. In addition, under setting [2], the AC50 was 2.31 µM [rising, partial curve]. Moreover, under setting [1], the AC50 is 2.06 µM [rising, partial curve].
With `O=C(NCc1ccc(Cl)cc1)C1CC(O)CN1S(=O)(=O)c1ccc(Cl)cc1` (stereo unspecified), the cell number change came to 1.32%. In addition, the half-maximal activity concentration (AC50) under setting [1] is 22.4 µM [falling, single point].
Regarding `COc1ccc(C)cc1NC(=O)C(NCC(O)c1ccccc1)c1ccccc1` (stereo unspecified), the cell number change stood at 0.709%. In addition, the concentration at half-maximal activity (AC50) under setting [1] is 29.1 µM [rising, single point].
As to `COc1ccc(NC(=O)COc2cc(O)c3c(c2)OC(C)(C)CC3=O)cc1`, the cell number change was 17.2%.
For `Cc1nnc(SCC(=O)N2CC(=O)Nc3ccccc32)n1-c1ccccc1`, the cell number change came out at 0.897%. Further, the AC50 under setting [1] was 29.1 µM [falling, single point].
For `CCOc1ccc(S(=O)(=O)N(CC(=O)NCc2cccnc2)c2ccc(C)cc2)cc1`, the cell number change was 5.88%. Under setting [1], the AC50 is 2.91 µM [falling, single point].
As to `CC1CCCCN1C(=O)C1CCCCN1S(=O)(=O)c1cccc([N+](=O)[O-])c1` (stereo unspecified), the cell number change is -31.4%. The AC50 under setting [2] is 4.61 µM [falling, full curve, poor fit]. The AC50 under setting [1] is 32.6 µM [falling, partial curve, poor fit].
In the case of `CC1CC(C)CN(CC(=O)N2CCc3[nH]c4ccccc4c3C2)C1` (stereo unspecified), the half-maximal activity concentration (AC50) under setting [1] is 18.4 µM [falling, single point].
In the case of `Cc1cc(C)c(NC(=O)CSc2nnc(Cc3cccn3C)n2-c2ccc(F)cc2)c(C)c1`, the cell number change was -8.23%. In addition, the AC50 under setting [1] was 16.4 µM [falling, single point].
On to `Cc1ccc(NC(=O)C2CCN(C(=O)c3ccccc3C)CC2)cc1`, for which the cell number change stood at 22.4%.
Consider `O=C(Nc1cccc2ccccc12)c1cnccn1`, for which the concentration at half-maximal activity (AC50) under setting [1] was 6.51 µM [falling, single point].
As for `CCc1occc(=O)c1Oc1cc(NN2CCCCC2)c([N+](=O)[O-])cc1[N+](=O)[O-]`, the cell number change worked out at 34.6%. The AC50 under setting [2] is 7.31 µM [rising, full curve, poor fit]. In addition, the AC50 under setting [1] was 29.1 µM [rising, single point].
Consider `CC(=O)N(C(C)=O)c1ncc2c([nH]c3ccccc32)c1C#N`, for which the AC50 is 0.291 µM [rising, partial curve, poor fit] under setting [2] and 0.58 µM [rising, single point] under setting [1].
`CCOc1ccc(C(=O)N/N=C/c2ccc(SC)cc2)cc1`: the cell number change was determined as 5.17%. Further, the AC50 under setting [1] was 0.517 µM [rising, full curve, poor fit].
`CCc1ccc(NC(=S)N2CCN(S(=O)(=O)c3ccccc3)CC2)cc1`: the cell number change is 21.1%. Also, the AC50 under setting [2] was 0.164 µM [rising, full curve, poor fit]. Further, under setting [1], the AC50 is 6.51 µM [rising, partial curve, poor fit].
Consider `COc1ccc(C2C(C(=O)Nc3cccc(OC)c3)c3ccccc3C(=O)N2C)cc1` (stereo unspecified), for which the AC50 under setting [1] was 6.51 µM [rising, partial curve].
Take `Clc1ncnc2c1oc1ccccc12`: the cell number change was -50.3%. Further, the AC50 under setting [2] is 29.1 µM [falling, single point]. Besides, under setting [1], the AC50 is 1.16 µM [falling, full curve].
On to `Cc1cc(C(=O)CN2CCN(CC(=O)Nc3cccc(F)c3)CC2)c(C)n1C1CC1`, for which the cell number change is -12.2%. In addition, the AC50 under setting [2] was 0.231 µM [falling, full curve, poor fit]. The half-maximal activity concentration (AC50) under setting [1] is 18.4 µM [falling, partial curve, poor fit].
As to `Cc1ccc(OCC(=O)Nc2cccc3nsnc23)c(C)c1`, the cell number change came to 50%. For the same compound, the AC50 under setting [2] is 9.2 µM [rising, partial curve]. Besides, under setting [1], the AC50 is 1.64 µM [rising, partial curve].
Turning to `CCOC(=O)COc1cnc2ccccc2n1`, the cell number change is -10.8%. Moreover, the AC50 under setting [1] is 29.1 µM [falling, single point].
Consider `Cc1ccc(S(=O)(=O)c2c(O)c3ccc(C(=O)O)cc3[nH]c2=O)cc1`, for which the half-maximal activity concentration (AC50) under setting [1] was 10.3 µM [falling, partial curve].
Regarding `COc1ccccc1CC(=O)OC(C)C(=O)Nc1ccc(S(=O)(=O)N2CCCCC2)cc1` (stereo unspecified), the cell number change turned out to be 18.5%. The AC50 under setting [1] is 23.1 µM [falling, partial curve, poor fit].
Turning to `COc1ccccc1-n1nc(C(=O)O)c2ccccc2c1=O`, the cell number change was -0.415%. Besides, the AC50 under setting [2] was 6.51 µM [falling, single point].
With `COc1cccc(C(=O)Nc2nnc(S(=O)(=O)N(C)Cc3ccccc3)s2)c1`, the cell number change was -30%. For the same compound, the AC50 under setting [2] is 13 µM [falling, partial curve, poor fit].
For the compound `CC1CCCN(c2nc3c(c(=O)n(C)c(=O)n3C)n2Cc2ccccc2)C1` (stereo unspecified), the cell number change was -9.48%. Moreover, under setting [1], the AC50 is 0.184 µM [falling, full curve, poor fit].
As to `CNC(=O)/C(C#N)=c1\s/c(=C/C(=O)OC)c(=O)n1-c1ccccc1`, the cell number change was -12.3%. Besides, the half-maximal activity concentration (AC50) under setting [1] was 7.31 µM [rising, partial curve, poor fit].
For `COc1cc(NC(=O)COC(=O)c2n[nH]c3ccccc23)c(C)cc1[N+](=O)[O-]`, the cell number change worked out at 14.4%. The AC50 under setting [1] was 0.631 µM [rising, full curve, poor fit].
As to `CN(C)S(=O)(=O)c1ccc(NC(=O)C2CC3C=CC2C3)cc1` (stereo unspecified), the AC50 under setting [1] is 0.00461 µM [falling, full curve, poor fit].
As to `COc1ccc(-c2nc(-c3ccccc3)[nH]c(=O)c2C#N)cc1`, the cell number change was -34%. Also, the AC50 under setting [2] is 32.6 µM [falling, single point].
Regarding `C=CCn1c(SC2CCOC2=O)nc2sc(CC)cc2c1=O` (stereo unspecified), the cell number change was 18.2%.
Turning to `CCN(CC)c1ccc(/C=N/NC(=O)c2cccc(S(=O)(=O)N3CCOCC3)c2)c(O)c1`, the cell number change is -37.6%. For the same compound, the AC50 under setting [1] is 29.1 µM [falling, single point].
As to `O=C(Nc1cccc(-c2nnc(-c3ccco3)o2)c1)c1ccccc1`, the cell number change stood at 29.8%.
Consider `O=C(OCC(=O)N1CCc2ccccc21)c1ccc[nH]c1=O`, for which the cell number change was -22.2%. For the same compound, the AC50 under setting [1] is 13 µM [falling, single point].
